Test results as given in paper doi:10.1101/2024.11.06.622243.
These are yes or no findings as the source states them, for the method shown. In cells and extracts the contact can be indirect. Sequences can lack the tags named with a protein.

Amino acid sequences for entries named in this document (tags omitted).
UniProt P32745: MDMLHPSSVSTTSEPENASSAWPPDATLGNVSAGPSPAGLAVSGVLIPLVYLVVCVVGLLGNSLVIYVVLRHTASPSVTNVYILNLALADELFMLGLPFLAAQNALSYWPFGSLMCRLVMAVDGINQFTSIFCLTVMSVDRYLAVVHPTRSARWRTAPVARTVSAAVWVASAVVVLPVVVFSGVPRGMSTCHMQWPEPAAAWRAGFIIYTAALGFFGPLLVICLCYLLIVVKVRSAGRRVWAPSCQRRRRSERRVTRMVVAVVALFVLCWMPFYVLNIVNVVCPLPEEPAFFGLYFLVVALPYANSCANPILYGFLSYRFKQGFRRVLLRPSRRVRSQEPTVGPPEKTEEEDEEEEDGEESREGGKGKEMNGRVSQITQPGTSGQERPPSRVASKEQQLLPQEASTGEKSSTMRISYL

Biological target: T1, HA-Halo-MRAP2 (human) (UniProt Q96G30)
T1 sequence (chain, CA-Sulfo646 dye on the Halo tag): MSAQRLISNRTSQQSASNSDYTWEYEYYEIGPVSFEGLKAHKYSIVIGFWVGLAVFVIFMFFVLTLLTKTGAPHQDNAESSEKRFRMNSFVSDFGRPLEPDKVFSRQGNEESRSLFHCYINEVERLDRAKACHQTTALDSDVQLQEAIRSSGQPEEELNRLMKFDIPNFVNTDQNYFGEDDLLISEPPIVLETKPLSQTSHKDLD
Test: single-molecule pull-down (SiMPull); two-colour SiMPull: HA-Halo-tagged bait (CA-Sulfo646) and FLAG-CLIP-tagged prey (BC-DY547) co-expressed in HEK293 cells (300 ng Halo and 600 ng CLIP plasmid), labelled before lysis in 0.5% LMNG/0.05% CHS, bait immobilised by biotinylated anti-HA antibody, co-localisation and photobleaching steps by TIRF

**Q.** Which binding does the source give for “FLAG-CLIP-SSTR3 (from UniProt P32745 1-418) (receptor)” here?
**A.** no binding
